# Source: patent publication US20180147198A1, “COMBINATIONS OF PFKFB3 INHIBITORS AND IMMUNE CHECKPOINT INHIBITORS TO TREAT CANCER” (UNIVERSITY OF LOUISVILLE RESEARCH FOUNDATION, INC., priority 2015, published 2018)
# “Also recorded” adds a separate entry of the source. At least one compound was matched to its structure with a doubt left.
# System: peripheral blood mononuclear cells
# Assay: Flow cytometry of peripheral blood mononuclear cells of a breast cancer patient receiving PFK-158
# Format: in vivo, human
# Settings: 3 weeks of PFK-158 administration
# Experimental: An unexpected stability of tumors in multiple patients receiving PFK-158 at doses that were considered to be sub-therapeutic has been observed. […] This breast adenocarcinoma patient received 96 mg/M^2 of PFK-158 every other day for three weeks followed by a one week rest—this cycle was repeated for a total of four cycles. Peripheral blood mononuclear cells were collected on days 1, 8, 15, 22 and 62 and flow cytometry was conducted for a multitude of immunosuppressive cells and activated T cells. […] These cells are the main CD8+ T cells that can infiltrate tumors and differentiate into cytolytic T cells which kill tumor cells. […]
# Given the decrease in Th17 cells and increase in effector CD8^+ T cells observed after PFK-158 administration, the ability of PFK-158 to cause an increase in terminally-differentiated CD8^+ effector cells was examined. CD8^+CD57^+CD27^− TCD28^− The breast cancer patient described in Example 7 was administered PFK-158 for 1 cycle and PBMCs were collected at baseline, day 8, 15, 22, and then analyzed for CD8^+CD57^+CD27^− TCD28^− T cells and PD-1. […]
# CD57 is a terminally sulfated carbohydrate that is selectively expressed on antigen-specific, and functionally competent memory/effector CD8^+ T cells. […] PBMCs were collected at baseline, day 8, 15, and 22 and CD8^+CD57^+CD27^− CD28^− T cells were analyzed for CD57 expression. […]
compound,measurement,value
"O=C(/C=C/c1ccc2ccc(C(F)(F)F)cc2n1)c1ccncc1 [PFK-158, (E)-1-(pyridyn-4-yl)-3-(7-(trifluoromethyl)quinolin-2-yl)-prop-2-en-1-one]",frequencies of effector CD8+/IFN-γ+ cells,doubled; also recorded: continued to increase
